In patent US20250179023A1, “HOLOSYMMETRIC BIPHENYL DERIVATIVE, AND PREPARATION METHOD THEREFOR AND USE THEREOF” (Abbisko Therapeutics Co., Ltd., priority 2022, published 2025):

Assay: in vitro
Conditions: human, Caco-2, pH 7.4

Papp A→B at 90 min, 10 μM: 4.2 nm/s
Papp B→A at 90 min, 10 μM: 5.7 nm/s
Compound: CC(C)NCC(O)COc1ccc(CC(N)=O)cc1 (centres unmarked) [Atenolol, atenolol]
